No constants are given. Whether binding was seen depends on the method and setting. In cells and extracts the contact can be indirect. A yes stands for co-enrichment or nearness to the bait. Other partners may have been found.

The experiment concerns the target T1, Kinesin family member 2C (KIF2C), stably overexpressed in HepG2 cells (human) (UniProt Q99661).
T1 sequence: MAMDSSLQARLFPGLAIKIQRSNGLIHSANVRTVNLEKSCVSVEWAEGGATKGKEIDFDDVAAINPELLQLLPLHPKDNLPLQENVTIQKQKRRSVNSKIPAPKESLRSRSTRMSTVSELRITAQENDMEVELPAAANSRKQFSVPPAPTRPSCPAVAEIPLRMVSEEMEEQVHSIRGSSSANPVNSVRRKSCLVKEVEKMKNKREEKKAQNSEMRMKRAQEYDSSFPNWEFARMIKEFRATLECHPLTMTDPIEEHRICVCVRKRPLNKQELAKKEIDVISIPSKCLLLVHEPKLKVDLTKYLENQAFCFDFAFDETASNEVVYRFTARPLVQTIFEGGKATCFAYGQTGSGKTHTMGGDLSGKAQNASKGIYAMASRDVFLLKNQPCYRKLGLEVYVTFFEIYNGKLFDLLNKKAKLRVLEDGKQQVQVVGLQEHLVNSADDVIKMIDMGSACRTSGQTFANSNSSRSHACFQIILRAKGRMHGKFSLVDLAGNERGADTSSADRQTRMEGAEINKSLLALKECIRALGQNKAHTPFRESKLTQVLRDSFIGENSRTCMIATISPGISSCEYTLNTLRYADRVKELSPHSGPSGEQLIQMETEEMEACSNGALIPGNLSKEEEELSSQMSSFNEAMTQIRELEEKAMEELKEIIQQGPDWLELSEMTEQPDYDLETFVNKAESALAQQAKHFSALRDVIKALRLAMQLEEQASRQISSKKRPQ
As to the kind of experiment: affinity purification with mass spectrometry; immunoprecipitation from KIF2C-overexpressing HepG2 cells with KIF2C antibody (normal mouse IgG as control), TNE lysis buffer (10 mmol/L Tris-HCl pH 7.5, 150 mmol/L NaCl, 2 mmol/L EDTA, 0.5% Nonidet P-40), protein A/G beads 4 °C 4 h; silver staining, trypsin digest and mass spectrometry.

B1: endogenous TBC1D7 (protein, UniProt Q9P0N9 1-293)
chain: MTEDSQRNFRSVYYEKVGFRGVEEKKSLEILLKDDRLDTEKLCTFSQRFPLPSMYRALVWKVLLGILPPHHESHAKVMMYRKEQYLDVLHALKVVRFVSDATPQAEVYLRMYQLESGKLPRSPSFPLEPDDEVFLAIAKAMEEMVEDSVDCYWITRRFVNQLNTKYRDSLPQLPKAFEQYLNLEDGRLLTHLRMCSAAPKLPYDLWFKRCFAGCLPESSLQRVWDKVVSGSCKILVFVAVEILLTFKIKVMALNSAEKITKFLENIPQDSSDAIVSKAIDLWHKHCGTPVHSS
Consider B1, for which the binding result was “binds”.

The values are drawn from publication PMC8464548.
